Assay results from article PMC10604066.

T1: Thylakoid rhodanese-like protein (TROL) with HA and FLAG tags (TROL-HA-FLAG) (Arabidopsis thaliana) (UniProt Q9M158)
T1 sequence: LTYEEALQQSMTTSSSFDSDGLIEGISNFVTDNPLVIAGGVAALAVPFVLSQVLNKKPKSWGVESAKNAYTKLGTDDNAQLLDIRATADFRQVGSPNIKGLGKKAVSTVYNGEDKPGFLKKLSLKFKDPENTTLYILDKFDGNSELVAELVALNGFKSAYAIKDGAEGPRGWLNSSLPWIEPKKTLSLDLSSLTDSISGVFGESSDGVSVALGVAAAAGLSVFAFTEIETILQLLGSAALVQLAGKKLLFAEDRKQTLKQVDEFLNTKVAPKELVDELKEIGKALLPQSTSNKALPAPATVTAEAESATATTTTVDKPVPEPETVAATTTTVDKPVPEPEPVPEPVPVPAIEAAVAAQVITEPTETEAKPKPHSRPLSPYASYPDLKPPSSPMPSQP

B1: L-ascorbate peroxidase T, chloroplastic (enzyme, UniProt Q42593 79-426)
chain: AASDAAQLISAKEDIKVLLRTKFCHPILVRLGWHDAGTYNKNIEEWPLRGGANGSLRFEAELKHAANAGLLNALKLIQPLKDKYPNISYADLFQLASATAIEEAGGPDIPMKYGRVDVVAPEQCPEEGRLPDAGPPSPADHLRDVFYRMGLDDKEIVALSGAHTLGRARPDRSGWGKPETKYTKTGPGEAGGQSWTVKWLKFDNSYFKDIKEKRDDDLLVLPTDAALFEDPSFKNYAEKYAEDVAAFFKDYAEAHAKLSNLGAKFDPPEGIVIENVPEKFVAAKYSTGKKELSDSMKKKIRAEYEAIGGSPDKPLPTNYFLNIIIAIGVLVLLSTLFGGNNNSDFSGF
B2: Lipoxygenase 2, chloroplastic (enzyme, UniProt P38418 57-896)
chain: ANIEQEGNTVKEPIQNIKVKGYITAQEEFLEGITWSRGLDDIADIRGRSLLVELISAKTDQRITVEDYAQRVWAEAPDEKYECEFEMPEDFGPVGAIKIQNQYHRQLFLKGVELKLPGGSITFTCESWVAPKSVDPTKRIFFSDKSYLPSQTPEPLKKYRKEELETLQGKNREEVGEFTKFERIYDYDVYNDVGDPDNDPELARPVIGGLTHPYPRRCKTGRKPCETDPSSEQRYGGEFYVPRDEEFSTAKGTSFTGKAVLAALPSIFPQIESVLLSPQEPFPHFKAIQNLFEEGIQLPKDAGLLPLLPRIIKALGEAQDDILQFDAPVLINRDRFSWLRDDEFARQTLAGLNPYSIQLVEEWPLISKLDPAVYGDPTSLITWEIVEREVKGNMTVDEALKNKRLFVLDYHDLLLPYVNKVRELNNTTLYASRTLFFLSDDSTLRPVAIELTCPPNINKPQWKQVFTPGYDATSCWLWNLAKTHAISHDAGYHQLISHWLRTHACTEPYIIAANRQLSAMHPIYRLLHPHFRYTMEINARARQSLVNGGGIIETCFWPGKYALELSSAVYGKLWRFDQEGLPADLIKRGLAEEDKTAEHGVRLTIPDYPFANDGLILWDAIKEWVTDYVKHYYPDEELITSDEELQGWWSEVRNIGHGDKKDEPWWPVLKTQDDLIGVVTTIAWVTSGHHAAVNFGQYGYGGYFPNRPTTTRIRMPTEDPTDEALKEFYESPEKVLLKTYPSQKQATLVMVTLDLLSTHSPDEEYIGEQQEASWANEPVINAAFERFKGKLQYLEGVIDERNVNITLKNRAGAGVVKYELLKPTSEHGVTGMGVPYSISI
B3: PGR5-like protein 1A, chloroplastic (protein, UniProt Q8H112 61-324)
chain: ATTEQSGPVGGDNVDSNVLPYCSINKAEKKTIGEMEQEFLQALQSFYYDGKAIMSNEEFDNLKEELMWEGSSVVMLSSDEQRFLEASMAYVSGNPILNDEEYDKLKLKLKIDGSDIVSEGPRCSLRSKKVYSDLAVDYFKMLLLNVPATVVALGLFFFLDDITGFEITYIMELPEPYSFIFTWFAAVPVIVYLALSITKLIIKDFLILKGPCPNCGTENTSFFGTILSISSGGKTNTVKCTNCGTAMVYDSGSRLITLPEGSQA
B4: Protein CURVATURE THYLAKOID 1A, chloroplastic (protein, UniProt O04616 63-164)
chain: ASSEETSSIDTNELITDLKEKWDGLENKSTVLIYGGGAIVAVWLSSIVVGAINSVPLLPKVMELVGLGYTGWFVYRYLLFKSSRKELAEDIESLKKKIAGSE
B5: Light-regulated protein 1, chloroplastic (protein, UniProt Q96500 42-141)
chain: SNNSSSSSSLTSDPNTVDYNSSILSVFPAEACEVISGYACSADIYPEVKLDTKPVSRPVASEPVDREYEEYNSPKTVFREEACDDLGGEFCEPDFQKDAN

The binders below were run against T1, Thylakoid rhodanese-like protein (TROL) with HA and FLAG tags (TROL-HA-FLAG) (Arabidopsis thaliana) (assay: affinity purification with mass spectrometry; FLAG/HA tandem affinity purification of TROL-HA-FLAG from thylakoids of TROL OX Arabidopsis solubilised in 1% DDM; anti-FLAG resin overnight at 4 °C, RIPA wash, 3 × FLAG peptide elution, anti-HA resin 1.5 h at 4 °C, elution with 8 M urea and Laemmli buffer; GeLC-MS/MS; three independent trials, protein threshold 99.9%, peptide threshold 95%).

binding, binds:
B1
B2
B3
B4
B5

Results are given in words; binding and its absence hold for the method and conditions named. Binding seen in cells or lysates may run through a third protein. These calls come from enrichment with a bait or labelling near it, and not all partners need be listed. Where a sequence is shown, tags or fusion partners need not be part of it.
